Measured values published in PMC12354898, “Collagen VI microfibril structure reveals mechanism for molecular assembly and clustering of inherited pathogenic mutations” (Nature Communications, 2025).
These are yes or no findings as the source states them, for the method shown. Binding can be weak; no strength is given. For part of these data: In cells and extracts the contact can be indirect.

Protein sequences, listed by entry. Tags and fused reporters are not part of them. Lines headed by an entry give the natural chain unless they say otherwise; changes in a name come on top.
UniProt P12109: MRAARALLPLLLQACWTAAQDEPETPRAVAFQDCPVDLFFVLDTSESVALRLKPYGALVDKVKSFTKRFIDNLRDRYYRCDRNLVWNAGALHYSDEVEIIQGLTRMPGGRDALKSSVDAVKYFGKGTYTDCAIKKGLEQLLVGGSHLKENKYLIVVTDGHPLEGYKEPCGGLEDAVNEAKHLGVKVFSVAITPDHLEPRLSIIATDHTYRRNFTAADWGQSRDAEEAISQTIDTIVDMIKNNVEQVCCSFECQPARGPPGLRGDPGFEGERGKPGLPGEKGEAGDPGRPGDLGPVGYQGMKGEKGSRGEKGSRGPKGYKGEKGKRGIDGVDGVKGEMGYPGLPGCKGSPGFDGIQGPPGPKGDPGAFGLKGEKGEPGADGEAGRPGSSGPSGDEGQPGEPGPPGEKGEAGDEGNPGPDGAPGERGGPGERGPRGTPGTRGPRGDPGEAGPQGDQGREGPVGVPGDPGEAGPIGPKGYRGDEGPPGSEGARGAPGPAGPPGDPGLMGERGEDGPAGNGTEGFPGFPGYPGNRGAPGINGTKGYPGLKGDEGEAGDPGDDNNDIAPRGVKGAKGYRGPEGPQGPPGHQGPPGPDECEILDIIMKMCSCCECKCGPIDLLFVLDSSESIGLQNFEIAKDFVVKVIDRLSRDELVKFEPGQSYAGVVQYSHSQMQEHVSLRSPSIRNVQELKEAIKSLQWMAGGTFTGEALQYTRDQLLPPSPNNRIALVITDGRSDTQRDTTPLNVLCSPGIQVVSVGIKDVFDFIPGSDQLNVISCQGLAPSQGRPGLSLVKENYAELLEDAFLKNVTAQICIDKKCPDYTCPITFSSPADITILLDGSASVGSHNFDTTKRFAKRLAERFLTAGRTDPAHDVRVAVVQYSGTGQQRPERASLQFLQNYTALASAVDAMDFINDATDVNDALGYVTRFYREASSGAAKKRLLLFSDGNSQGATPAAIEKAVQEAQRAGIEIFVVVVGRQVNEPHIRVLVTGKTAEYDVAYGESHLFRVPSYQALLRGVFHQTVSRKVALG
UniProt P12110: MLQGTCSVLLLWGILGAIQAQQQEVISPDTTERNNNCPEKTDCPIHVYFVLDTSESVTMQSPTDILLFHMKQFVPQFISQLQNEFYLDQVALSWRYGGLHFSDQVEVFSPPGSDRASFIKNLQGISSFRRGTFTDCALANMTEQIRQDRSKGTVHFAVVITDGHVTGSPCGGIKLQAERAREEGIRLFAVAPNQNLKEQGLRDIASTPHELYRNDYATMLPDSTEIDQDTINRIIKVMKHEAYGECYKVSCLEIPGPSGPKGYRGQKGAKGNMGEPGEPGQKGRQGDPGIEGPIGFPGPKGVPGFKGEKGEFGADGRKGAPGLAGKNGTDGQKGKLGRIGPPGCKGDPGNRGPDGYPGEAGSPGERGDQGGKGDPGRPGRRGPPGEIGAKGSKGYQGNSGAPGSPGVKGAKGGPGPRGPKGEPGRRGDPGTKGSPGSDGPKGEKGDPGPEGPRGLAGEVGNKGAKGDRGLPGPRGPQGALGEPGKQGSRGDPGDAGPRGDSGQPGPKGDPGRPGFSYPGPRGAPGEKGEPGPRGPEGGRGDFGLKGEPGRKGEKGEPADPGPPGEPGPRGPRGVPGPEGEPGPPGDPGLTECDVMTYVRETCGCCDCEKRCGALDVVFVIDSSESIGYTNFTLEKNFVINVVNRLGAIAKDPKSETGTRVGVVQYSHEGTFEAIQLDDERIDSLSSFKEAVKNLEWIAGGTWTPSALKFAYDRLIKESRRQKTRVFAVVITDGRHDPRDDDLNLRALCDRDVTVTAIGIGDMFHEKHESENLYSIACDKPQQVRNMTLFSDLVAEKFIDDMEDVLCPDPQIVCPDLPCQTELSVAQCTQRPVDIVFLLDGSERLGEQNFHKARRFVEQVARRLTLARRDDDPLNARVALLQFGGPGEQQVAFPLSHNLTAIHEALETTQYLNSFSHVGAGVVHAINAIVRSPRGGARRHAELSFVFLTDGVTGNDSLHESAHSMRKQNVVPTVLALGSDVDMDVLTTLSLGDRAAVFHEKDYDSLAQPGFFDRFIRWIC
UniProt P12111: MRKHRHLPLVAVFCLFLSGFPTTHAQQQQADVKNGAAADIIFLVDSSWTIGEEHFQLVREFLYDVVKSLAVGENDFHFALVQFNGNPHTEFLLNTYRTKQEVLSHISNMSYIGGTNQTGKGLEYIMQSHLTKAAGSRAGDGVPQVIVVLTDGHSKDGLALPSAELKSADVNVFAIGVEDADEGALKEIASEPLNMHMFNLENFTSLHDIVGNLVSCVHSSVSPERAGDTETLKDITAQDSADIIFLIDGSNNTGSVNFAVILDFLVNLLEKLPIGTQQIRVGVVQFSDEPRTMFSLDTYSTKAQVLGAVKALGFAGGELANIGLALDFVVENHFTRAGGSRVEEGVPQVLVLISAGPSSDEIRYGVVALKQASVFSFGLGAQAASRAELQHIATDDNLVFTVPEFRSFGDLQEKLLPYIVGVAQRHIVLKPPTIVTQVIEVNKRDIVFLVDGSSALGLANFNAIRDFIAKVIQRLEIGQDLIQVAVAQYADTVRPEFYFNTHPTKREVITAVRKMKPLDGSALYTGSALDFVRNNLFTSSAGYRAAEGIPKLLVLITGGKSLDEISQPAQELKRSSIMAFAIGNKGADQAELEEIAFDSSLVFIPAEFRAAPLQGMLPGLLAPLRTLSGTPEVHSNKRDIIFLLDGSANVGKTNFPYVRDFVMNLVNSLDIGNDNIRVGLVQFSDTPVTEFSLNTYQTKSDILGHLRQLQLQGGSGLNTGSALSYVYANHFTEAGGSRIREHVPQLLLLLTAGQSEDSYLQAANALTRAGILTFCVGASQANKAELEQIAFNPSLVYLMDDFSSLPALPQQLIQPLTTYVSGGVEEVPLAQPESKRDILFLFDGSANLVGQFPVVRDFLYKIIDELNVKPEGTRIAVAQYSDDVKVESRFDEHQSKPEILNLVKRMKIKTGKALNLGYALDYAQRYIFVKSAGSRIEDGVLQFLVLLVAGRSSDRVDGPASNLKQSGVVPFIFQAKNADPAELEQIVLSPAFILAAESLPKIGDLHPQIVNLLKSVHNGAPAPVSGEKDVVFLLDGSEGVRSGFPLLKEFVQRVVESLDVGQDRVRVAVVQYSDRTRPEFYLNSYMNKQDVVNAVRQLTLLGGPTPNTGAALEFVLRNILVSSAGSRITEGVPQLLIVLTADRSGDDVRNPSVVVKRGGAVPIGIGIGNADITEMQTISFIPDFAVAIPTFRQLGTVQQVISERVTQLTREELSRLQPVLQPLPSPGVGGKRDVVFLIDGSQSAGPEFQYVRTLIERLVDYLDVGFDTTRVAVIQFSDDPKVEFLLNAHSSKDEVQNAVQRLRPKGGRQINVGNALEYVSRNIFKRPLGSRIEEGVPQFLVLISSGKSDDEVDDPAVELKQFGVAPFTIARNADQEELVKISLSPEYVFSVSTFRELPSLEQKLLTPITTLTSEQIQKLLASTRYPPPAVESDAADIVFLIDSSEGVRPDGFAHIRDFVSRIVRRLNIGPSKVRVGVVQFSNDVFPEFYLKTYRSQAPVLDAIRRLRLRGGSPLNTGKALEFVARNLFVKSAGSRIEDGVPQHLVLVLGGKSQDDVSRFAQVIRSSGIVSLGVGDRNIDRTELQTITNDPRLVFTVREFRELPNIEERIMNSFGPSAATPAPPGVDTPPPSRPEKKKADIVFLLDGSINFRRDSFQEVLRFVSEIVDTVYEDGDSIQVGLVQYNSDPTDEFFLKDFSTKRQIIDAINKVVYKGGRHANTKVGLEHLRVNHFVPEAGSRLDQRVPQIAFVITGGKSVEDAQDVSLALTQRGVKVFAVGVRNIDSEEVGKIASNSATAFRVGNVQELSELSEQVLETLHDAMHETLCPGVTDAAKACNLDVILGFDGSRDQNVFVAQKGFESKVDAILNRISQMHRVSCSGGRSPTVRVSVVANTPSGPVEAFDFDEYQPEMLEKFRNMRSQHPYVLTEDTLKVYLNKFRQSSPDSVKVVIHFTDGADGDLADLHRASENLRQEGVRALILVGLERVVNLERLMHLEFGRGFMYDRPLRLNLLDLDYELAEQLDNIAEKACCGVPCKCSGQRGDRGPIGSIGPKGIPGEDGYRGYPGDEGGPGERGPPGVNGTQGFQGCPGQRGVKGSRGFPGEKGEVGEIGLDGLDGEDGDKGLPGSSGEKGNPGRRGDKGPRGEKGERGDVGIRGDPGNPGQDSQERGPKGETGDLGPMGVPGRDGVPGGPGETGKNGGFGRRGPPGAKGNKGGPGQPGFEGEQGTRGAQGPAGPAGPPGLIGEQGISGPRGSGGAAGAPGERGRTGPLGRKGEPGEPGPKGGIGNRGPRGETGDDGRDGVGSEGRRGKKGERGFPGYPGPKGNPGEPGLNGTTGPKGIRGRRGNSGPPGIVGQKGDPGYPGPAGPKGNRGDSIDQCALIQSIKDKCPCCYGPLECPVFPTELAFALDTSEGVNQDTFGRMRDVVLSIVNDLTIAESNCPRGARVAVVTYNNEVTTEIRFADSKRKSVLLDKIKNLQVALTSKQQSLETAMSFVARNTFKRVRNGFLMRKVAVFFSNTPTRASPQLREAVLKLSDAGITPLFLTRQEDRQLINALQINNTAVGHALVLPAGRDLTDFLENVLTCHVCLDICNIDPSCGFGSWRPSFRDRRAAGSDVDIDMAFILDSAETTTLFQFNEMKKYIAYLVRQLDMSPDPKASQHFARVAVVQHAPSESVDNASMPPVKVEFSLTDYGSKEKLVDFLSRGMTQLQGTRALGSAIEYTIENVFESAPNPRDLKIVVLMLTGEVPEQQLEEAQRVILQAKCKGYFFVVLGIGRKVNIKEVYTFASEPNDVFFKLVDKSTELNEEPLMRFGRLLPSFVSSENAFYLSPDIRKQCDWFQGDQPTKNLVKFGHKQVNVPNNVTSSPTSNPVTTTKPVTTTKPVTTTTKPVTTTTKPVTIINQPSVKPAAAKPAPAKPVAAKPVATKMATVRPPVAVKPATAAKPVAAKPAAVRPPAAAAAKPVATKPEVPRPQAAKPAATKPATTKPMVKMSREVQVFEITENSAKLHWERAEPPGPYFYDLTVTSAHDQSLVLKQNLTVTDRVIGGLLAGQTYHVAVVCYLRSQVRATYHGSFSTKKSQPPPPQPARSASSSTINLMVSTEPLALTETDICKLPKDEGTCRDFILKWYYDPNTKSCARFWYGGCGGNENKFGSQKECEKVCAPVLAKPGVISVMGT

Columns and labels:
[1] = target: mini-collagen VI α1 chain truncated after the C1 vWA domain (α1 chain of α1α2α3^C1) (human) (UniProt P12109); assay: SEC-MALS; purified heterotrimer on Superdex 200 or Superose 6 in HBS (20 mM HEPES, 150 mM NaCl, pH 7.4), 0.75 mL/min; both purified
[2] = target: mini-collagen VI α2 chain truncated after the C1 vWA domain (α2 chain of α1α2α3^C1) (human) (UniProt P12110); assay: as above
[3] = target: mini-collagen VI α1 chain truncated after the C1 vWA domain (α1 chain of α1α2α3^C1) (human) (UniProt P12109); assay: negative-stain TEM; purified α1α2α3^C1 heterotrimer on carbon-coated grids, 2% uranyl acetate; both purified
[4] = target: mini-collagen VI α2 chain truncated after the C1 vWA domain (α2 chain of α1α2α3^C1) (human) (UniProt P12110); assay: as above
[5] = target: mini-collagen VI α1 chain truncated after the C1 vWA domain (α1 chain of α1α2α3^C1) (human) (UniProt P12109); assay: pull-down; three chains co-expressed in Expi293F; sequential affinity steps from conditioned media (Strep-Tactin XT for Twin-Strep α2, Ni-Sepharose for His α1, anti-FLAG M2 for α3; Fig. 5f: Twin-strep then His-tag); eluates on reduced and non-reduced SDS-PAGE
[6] = target: mini-collagen VI α2 chain truncated after the C1 vWA domain (α2 chain of α1α2α3^C1) (human) (UniProt P12110); assay: as above

Measured: binding

mini-collagen VI α3 chain truncated after the C1 vWA domain (α3 chain of α1α2α3^C1) (from UniProt P12111) (domain or fragment)
binds: [1] | [2] | [3] | [4] | [5] | [6]

mini-collagen VI α1 chain truncated after the C1 vWA domain (α1 chain of α1α2α3^C1) (from UniProt P12109) (domain or fragment)
binds: [2] | [4] | [6]
